Values of other authors in patent publication US11213481B2, “Tumescent drug delivery” (priority 2004, dated 2022).

Details: tumescent lidocaine; cited from earlier work

For `CCN(CC)CC(=O)Nc1c(C)cccc1C` [Lidocaine], the “time required for systemic absorption” value is listed as at least 24 h.
